The target of assay [1] is T1, recombinant human galectin-4 (human) (UniProt P56470).
T1 sequence: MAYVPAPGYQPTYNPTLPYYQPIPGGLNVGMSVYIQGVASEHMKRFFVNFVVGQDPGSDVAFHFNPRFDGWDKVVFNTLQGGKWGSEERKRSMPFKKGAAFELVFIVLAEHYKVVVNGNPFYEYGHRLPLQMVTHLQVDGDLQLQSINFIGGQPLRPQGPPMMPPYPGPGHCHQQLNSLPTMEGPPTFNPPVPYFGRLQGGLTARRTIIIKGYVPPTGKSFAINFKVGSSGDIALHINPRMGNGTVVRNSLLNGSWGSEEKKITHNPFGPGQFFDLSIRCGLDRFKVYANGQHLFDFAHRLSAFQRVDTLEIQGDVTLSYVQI
The assay can be described thus: ELISA.

Protein sequences, listed by entry. Tags and fused reporters are not part of them. Residues count along the entry.
UniProt P06179, 2-495: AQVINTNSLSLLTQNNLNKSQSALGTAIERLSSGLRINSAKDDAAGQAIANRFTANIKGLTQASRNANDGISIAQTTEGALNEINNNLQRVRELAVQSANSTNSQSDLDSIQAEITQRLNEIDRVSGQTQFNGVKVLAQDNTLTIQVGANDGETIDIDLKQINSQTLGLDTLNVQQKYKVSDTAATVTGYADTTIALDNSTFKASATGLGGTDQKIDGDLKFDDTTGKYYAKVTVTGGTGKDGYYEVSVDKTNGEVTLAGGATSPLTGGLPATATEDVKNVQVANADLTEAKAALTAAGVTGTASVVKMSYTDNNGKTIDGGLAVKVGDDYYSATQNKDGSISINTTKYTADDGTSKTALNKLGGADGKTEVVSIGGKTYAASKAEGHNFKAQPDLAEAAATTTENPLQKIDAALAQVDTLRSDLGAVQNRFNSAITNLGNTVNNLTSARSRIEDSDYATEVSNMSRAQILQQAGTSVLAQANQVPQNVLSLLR

Assay [2] deals with phase-1 (P1) flagella (polymeric FliC flagellin) from S. Typhimurium SL1344 (S. Typhimurium) (UniProt P06179). The assay can be described thus: SEC. A general note: SEC sorts molecules by how far they enter the pores of the column.

No constants are given. Whether binding was seen depends on the method and setting. Some results given as binding are weak or reduced against the parent protein; the word gives no strength.

Data on one substance can be found in doi:10.1101/2020.02.12.945204 (bioRxiv, 2020).

On to “phase-1 (P1) flagella (polymeric FliC flagellin) from S. Typhimurium SL1344 (from UniProt P06179 2-495)”, for which the binding entry in assay [1] and in assay [2] was “binds” in each case.
